Laboratory results as given in PMC7819943, “Rice protein-binding microarrays: a tool to detect cis-acting elements near promoter regions in rice”.
The other results are listed elsewhere or left out.

Protein sequences, listed by entry. Tags and fused reporters are not part of them.
UniProt Q0JBA9, entry or part of it: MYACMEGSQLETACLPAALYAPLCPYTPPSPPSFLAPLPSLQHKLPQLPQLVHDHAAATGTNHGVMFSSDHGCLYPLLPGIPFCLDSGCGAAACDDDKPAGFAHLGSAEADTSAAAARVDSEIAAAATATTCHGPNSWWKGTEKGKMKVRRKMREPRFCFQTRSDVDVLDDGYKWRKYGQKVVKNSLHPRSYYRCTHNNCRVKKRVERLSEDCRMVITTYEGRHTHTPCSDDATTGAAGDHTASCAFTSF

target: OsWRKY34 (Oryza sativa, UniProt Q0JBA9 1-250); test: protein-binding microarray (RPBM); PBS, 2% BSA, 51.3 ng/ul salmon testes DNA, 50 uM zinc acetate, 200 nM TF, 25 C, 1 h; high values mean tight binding; settings: protein: recombinant; tags: N-terminal polyhistidine and DsRed monomer fusion (pET32a); label: CyDye5-dUTP incorporated in the synthesized complementary strand; 3' TTTTT single-stranded linker to array surface; dsDNA, one strand shown
Summary of the method: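 Transcription factors were made in E. coli BL21-CodonPlus as N-terminal fusions to a polyhistidine tag and DsRed, then purified on Ni–NTA. After primer extension with Cy5-dUTP and blocking with 2% BSA, a custom Agilent array was exposed for 1 h at 25 °C to 200 nM protein in PBS, 2% BSA, salmon testes DNA and 50 µM zinc acetate. Washed arrays were scanned on an Axon 4000B, and the binding signal is per-feature fluorescence intensity in arbitrary units.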

Sequence | binding signal
CTAGCTTTCCATCATCCCACCACTGCCTCTGCTAAGCTACCGGAGTCACCTAGTGCAG | 9080 fluorescence intensity (a.u.)
ATATGGCCTTCGGTGGTATCCACGTAGAGCTTTACGTTAACGGAGTCACCTAGTGCAG | 8060 fluorescence intensity (a.u.)
TATATTGCTCTTAATTTATTTGTGTTACTTTTTATGTGTTCGGAGTCACCTAGTGCAG | 8330 fluorescence intensity (a.u.)
GCCTTTGTTGATGTCAAGGTCAATTTCGTAGTTTACCTTTCGGAGTCACCTAGTGCAG | 8040 fluorescence intensity (a.u.)
AGGCTTCTCTGTCTCCATTTCTGCATATGTAGTTTGCTTTCGGAGTCACCTAGTGCAG | 10900 fluorescence intensity (a.u.)
TCAAACCTCGCGACTTCTTCTTCCACCTCTCGCTCCGGGCCGGAGTCACCTAGTGCAG | 11800 fluorescence intensity (a.u.)
CTGCTCATGTTTCCCTCACTCCATTGCCCCTGCCTTTTCGCGGAGTCACCTAGTGCAG | 10400 fluorescence intensity (a.u.)
ATCCTCGCTGCTCTTCTCCACTGGTTCTCCATCGCCGGCCCGGAGTCACCTAGTGCAG | 8330 fluorescence intensity (a.u.)
ATATTTCGCCGCGCCCCGCGCCACGCCACGCCACGCCACCCGGAGTCACCTAGTGCAG | 8920 fluorescence intensity (a.u.)
TTGCAAACGACGTCCATCCCATCTCTCTCTCACCCCTTCACGGAGTCACCTAGTGCAG | 8660 fluorescence intensity (a.u.)
ATTCCTTTTCAGTTAAATGCATGTTACATTTGTCGGTAATCGGAGTCACCTAGTGCAG | 9180 fluorescence intensity (a.u.)
AGTTGGGGTACTCTTGATCCTTTCAGTTCTTGTGTTCGTTCGGAGTCACCTAGTGCAG | 8850 fluorescence intensity (a.u.)
GTCCACGGCCCAAAGCAAAGCACACGTACAGCTACACTTTCGGAGTCACCTAGTGCAG | 9930 fluorescence intensity (a.u.)
GACGTGGCTATGGGTGGGCGTTGCGAGCCGGCATTTTATACGGAGTCACCTAGTGCAG | 16400 fluorescence intensity (a.u.)
GCGCTCAGGGCCCCACCACCTCGGCACCCTACACCGTCCACGGAGTCACCTAGTGCAG | 11800 fluorescence intensity (a.u.)
ACTGCTCCAACACTACCTCTACAGGCTATCTCTGGGGACCCGGAGTCACCTAGTGCAG | 10200 fluorescence intensity (a.u.)
TCTAATTCTGTCCACTGATTTTTTTTTTCAGTTTATGTCTCGGAGTCACCTAGTGCAG | 8720 fluorescence intensity (a.u.)
CACTTCATCCATCGTTCGCCCGTGTCTATCCGCAGCGAGACGGAGTCACCTAGTGCAG | 8550 fluorescence intensity (a.u.)
CCAATCACAATCCTCCACCATTTACTCCTACATACTTTTTCGGAGTCACCTAGTGCAG | 11600 fluorescence intensity (a.u.)
ATTTGCGAGTTCGATCATATTATGGTGTGTTATGTTCCTTCGGAGTCACCTAGTGCAG | 13000 fluorescence intensity (a.u.)
GGGCCTATAACTGTAGTTCCATCACGTCTCTCTGTACGTTCGGAGTCACCTAGTGCAG | 8820 fluorescence intensity (a.u.)

2 records drawn at random from the list so far, as already listed:
Sequence | binding signal
ATCCTCGCTGCTCTTCTCCACTGGTTCTCCATCGCCGGCCCGGAGTCACCTAGTGCAG | 8330 fluorescence intensity (a.u.)
ACTGCTCCAACACTACCTCTACAGGCTATCTCTGGGGACCCGGAGTCACCTAGTGCAG | 10200 fluorescence intensity (a.u.)

Remaining list, next part.

Sequence | binding signal
TTCGCACTTTGCCGTTTTCCGACCGTTACTGCCATGCTTTCGGAGTCACCTAGTGCAG | 15800 fluorescence intensity (a.u.)
CCGTTTCCTTTGCTGGTTGTGTTTTGTGCTTGCATTCATGCGGAGTCACCTAGTGCAG | 12400 fluorescence intensity (a.u.)
GTCCCATTTTAACTGCAGCCATGGTTTTCCGCATCCAACTCGGAGTCACCTAGTGCAG | 10400 fluorescence intensity (a.u.)
ATATTGGTGGGCGCGGATTTTAATAGGTGGGCGGTGGATTCGGAGTCACCTAGTGCAG | 8430 fluorescence intensity (a.u.)
TTCGTGCACGCGGTCCATGCACCAGCCACCATTCCCTTCGCGGAGTCACCTAGTGCAG | 8350 fluorescence intensity (a.u.)
ATTCTCCCTCGCTTCTGATCTGTTTCTCAGTTGGGTATCTCGGAGTCACCTAGTGCAG | 10000 fluorescence intensity (a.u.)
AATTTTGAAATTATTATTTATTTTGTTTGTGACTTGCTTTCGGAGTCACCTAGTGCAG | 10100 fluorescence intensity (a.u.)
CCCCGGACTCCACTCTACACCCTTCACGCGCGCGAGCACGCGGAGTCACCTAGTGCAG | 9640 fluorescence intensity (a.u.)
ACTTGCTCTTTTATTTTTCTCCATTGTCAGCATGGTCGGTCGGAGTCACCTAGTGCAG | 13600 fluorescence intensity (a.u.)
CCATCCAGGGTTGTAATCTTATAATTTTTTTCCTGCTCTACGGAGTCACCTAGTGCAG | 9430 fluorescence intensity (a.u.)
ATGCTACTATACTATTGATCCTTGTTATGTGACTTATGTCCGGAGTCACCTAGTGCAG | 9240 fluorescence intensity (a.u.)
ATAATGGGAAATGTGGGGTAGGATTGGTATTGGAAAATGACGGAGTCACCTAGTGCAG | 11000 fluorescence intensity (a.u.)
AATAGCCATTTTTTTTCTCCATTTTCTTGCACACTGAACTCGGAGTCACCTAGTGCAG | 11400 fluorescence intensity (a.u.)
TTTGGCGCTACCTATTTAAACCGCTAGCTGCCACTCTCTCCGGAGTCACCTAGTGCAG | 8490 fluorescence intensity (a.u.)
TCTTCCATCGCCACGGCCCACACTCTGCCGAGCGCGTCTCCGGAGTCACCTAGTGCAG | 10500 fluorescence intensity (a.u.)
CTTTTCTTTCTTTCTTTTCGCACTTACAAAACAGCACTGTCGGAGTCACCTAGTGCAG | 10200 fluorescence intensity (a.u.)
AGGAGGGGTACAGTGGACAGCTCAAACCGAGAGGGGAGGGCGGAGTCACCTAGTGCAG | 8970 fluorescence intensity (a.u.)
TTGCTTTGAGACAACGGGCCACCAGGGGAGGGGACAGCACCGGAGTCACCTAGTGCAG | 9500 fluorescence intensity (a.u.)
ATAATGTTGTTCTTCGCATCGGTTGTAATTTGGTAATGCCCGGAGTCACCTAGTGCAG | 11200 fluorescence intensity (a.u.)
CTGGATAATTCATCCGACCTTTATTTTTTCATGAAATCTGCGGAGTCACCTAGTGCAG | 8340 fluorescence intensity (a.u.)
ACTTCATTTAATACGTGCGGTCCTTCCTACCGAGCCATATCGGAGTCACCTAGTGCAG | 8500 fluorescence intensity (a.u.)

Sequence | binding signal
GAAATTTTGACCTTGTTTTACAGATACTCCAGCTCATTCACGGAGTCACCTAGTGCAG | 8990 fluorescence intensity (a.u.)
GCCCCACCAAACCTACACCAACCTCATATTCCTCTAGCCGCGGAGTCACCTAGTGCAG | 9350 fluorescence intensity (a.u.)
TACTCCCGCCTCCTCATCCGGTTCCCGCCACTCCTATTTACGGAGTCACCTAGTGCAG | 12200 fluorescence intensity (a.u.)
GCCCTTTCGCATTTTACCTCGGCACACGGTAGACTCTCGACGGAGTCACCTAGTGCAG | 8980 fluorescence intensity (a.u.)
TTTCTTCATGCACTGCTCCTACGTGCCGCGATCATTGCTTCGGAGTCACCTAGTGCAG | 9110 fluorescence intensity (a.u.)
AAGGTGTGTGTCACTGGGGCTTCTGGCTATGTTGCCTCTTCGGAGTCACCTAGTGCAG | 8620 fluorescence intensity (a.u.)
CTCTTCCACGCTTCGGCTTCCATCCAATCATCTGCATCGTCGGAGTCACCTAGTGCAG | 8380 fluorescence intensity (a.u.)
TTCCACCTGAGCCTGTCTGTTAAACCTTCCACATCTCCTCCGGAGTCACCTAGTGCAG | 8560 fluorescence intensity (a.u.)
GTCGCCGTAGCCCACTGCCTCCAACGCTCTCCTCGGCGCCCGGAGTCACCTAGTGCAG | 9360 fluorescence intensity (a.u.)
TCTCTTCTCTAGTTCTCTTCTTCTTCTTGGCTGCTGTGCTCGGAGTCACCTAGTGCAG | 9600 fluorescence intensity (a.u.)
CACCAACCGTGTTCTACCAGCCTACCGAAACCTTCTCCTCCGGAGTCACCTAGTGCAG | 8550 fluorescence intensity (a.u.)
GTGTGGTGCGAGCAGTGATATTTTCTGTGTTGGGTCTGGGCGGAGTCACCTAGTGCAG | 8120 fluorescence intensity (a.u.)
GGGAGAGGGAGCCCCGCCGCCGCCGTCCTTGCAGCCGCCTCGGAGTCACCTAGTGCAG | 8590 fluorescence intensity (a.u.)
TACCTGACCTCGTCCTCGTGTTCACTAATACATGTGATTCCGGAGTCACCTAGTGCAG | 8960 fluorescence intensity (a.u.)
AACAATACTCTCTGCACTACGACCGTAGTCCTCGTCGTTTCGGAGTCACCTAGTGCAG | 10300 fluorescence intensity (a.u.)
GTCCTTATCTCGGCGTCCGAGCCCACCACCGCACCACCGCCGGAGTCACCTAGTGCAG | 10000 fluorescence intensity (a.u.)
GAGTTGTGTGTATGGACACGTGGTGGGCCAGGGGAGGGGACGGAGTCACCTAGTGCAG | 8660 fluorescence intensity (a.u.)
TGCTAGCTCGTTACCCTATCCCTCTTTTAGCATTTACCATCGGAGTCACCTAGTGCAG | 9700 fluorescence intensity (a.u.)
GACCGACTTAACCCAAACTTACCTCGGCGCCGGCGAGCTTCGGAGTCACCTAGTGCAG | 8580 fluorescence intensity (a.u.)
GATTTTAGCTTTTATACCTGTTCGAATATCTTCTTAAAACCGGAGTCACCTAGTGCAG | 9100 fluorescence intensity (a.u.)
CCGGATCACTCTCTCCACTCTCCGCTCCCCACCGCGCGAGCGGAGTCACCTAGTGCAG | 9660 fluorescence intensity (a.u.)

Sequence | binding signal
GTAAGCTTATGGTTTAGTCGTAGCTATTTACTACTTTCACCGGAGTCACCTAGTGCAG | 8760 fluorescence intensity (a.u.)
TGCATGTATTTTTGGCCGTGTATGCATATATGTATATGCGCGGAGTCACCTAGTGCAG | 8220 fluorescence intensity (a.u.)
TTTTTGAACGGTGCGTTTCGCTTTTCTCTCCCCACATTGACGGAGTCACCTAGTGCAG | 8050 fluorescence intensity (a.u.)
ATACTCTTATTAGGATCCATATGTCACATTCTTAAATTTGCGGAGTCACCTAGTGCAG | 8490 fluorescence intensity (a.u.)
CTTTTCACGTTTGGGCTTCACAGCATTCTAGCACCCCTGTCGGAGTCACCTAGTGCAG | 9350 fluorescence intensity (a.u.)
GTTTTATTGGTCGATCGCTGCGTCGTGGTTGTGTCTCGTGCGGAGTCACCTAGTGCAG | 8880 fluorescence intensity (a.u.)
ACTATGGGCTTTTGCATCAACAATTGCGAATTTTTTGTATCGGAGTCACCTAGTGCAG | 9280 fluorescence intensity (a.u.)
CGTCCACAACCCCGACATCGCCCTCGTCCAGGCCCGCTGGCGGAGTCACCTAGTGCAG | 8080 fluorescence intensity (a.u.)
TGAGTTATTCGTTCCGCTTTCAATTTTTCATTGCCAGAACCGGAGTCACCTAGTGCAG | 8070 fluorescence intensity (a.u.)
AGATGTAGTTCACTTGGCTTTCTGGTGGATTTTTCTTAATCGGAGTCACCTAGTGCAG | 9080 fluorescence intensity (a.u.)
TCTCTCGTTCATCCATCCAGCGGCACACACACCAAGCTAGCGGAGTCACCTAGTGCAG | 8090 fluorescence intensity (a.u.)
ACGTGGAGTCACGTGACTGGGCCGTGCCACTTTTTTTTATCGGAGTCACCTAGTGCAG | 9360 fluorescence intensity (a.u.)
CCCGTCACCCGTCACCTTGTCCACGCGCGGCGCGGCTACACGGAGTCACCTAGTGCAG | 13100 fluorescence intensity (a.u.)
TTCCTTTTGCTGGGATTGGTCTCTCATGAAGATGAGTTCACGGAGTCACCTAGTGCAG | 8850 fluorescence intensity (a.u.)
ATTCCCTGTCCACGTTCGTGTGTGTTCTGTGTTGTGTTGCCGGAGTCACCTAGTGCAG | 10900 fluorescence intensity (a.u.)
CACTATTCACGTTTAACGTTTGACCGTTCTTCTTATTTGACGGAGTCACCTAGTGCAG | 10300 fluorescence intensity (a.u.)
CCCTAGCCCAAACTCCATCCACTCCATCCACTGTGTCGCCCGGAGTCACCTAGTGCAG | 10900 fluorescence intensity (a.u.)
ATCATCCAAATTGTTGCTGAGGGGCTTGATTTATTGGGGTCGGAGTCACCTAGTGCAG | 8960 fluorescence intensity (a.u.)
ACTATAATTATGTTTTGTGGGTGTGTTTTTATCTTCTTCACGGAGTCACCTAGTGCAG | 9620 fluorescence intensity (a.u.)
CACCCCGGGACCCTAATTCATTGATCCTCCGCCGAAGTTTCGGAGTCACCTAGTGCAG | 9160 fluorescence intensity (a.u.)
AATTGTCGCACCGATGCCGCTATGAGCGTTTGACCATTCGCGGAGTCACCTAGTGCAG | 9160 fluorescence intensity (a.u.)

Individual results from above:
In binding signal, GTTTTATTGGTCGATCGCTGCGTCGTGGTTGTGTCTCGTGCGGAGTCACCTAGTGCAG has 8880 fluorescence intensity (a.u.)
In binding signal, ATACTCTTATTAGGATCCATATGTCACATTCTTAAATTTGCGGAGTCACCTAGTGCAG has 8490 fluorescence intensity (a.u.)
In binding signal, TGAGTTATTCGTTCCGCTTTCAATTTTTCATTGCCAGAACCGGAGTCACCTAGTGCAG has 8070 fluorescence intensity (a.u.)
In binding signal, AGATGTAGTTCACTTGGCTTTCTGGTGGATTTTTCTTAATCGGAGTCACCTAGTGCAG has 9080 fluorescence intensity (a.u.)
